Experimental data: the supplement of paper PMC12889115
This is one part of the list. These are raw signals, not scaled to a control.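 In the initial screen, polymyxin B was used at a concentration that permeabilizes Salmonella's outer membrane but not its inner membrane. Maximum growth was set by DMSO wells with or without polymyxin B. Since plates varied, data were ranked per plate, and compounds giving the lowest OD600 advanced as hits.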

System: Salmonella enterica serovar Typhimurium SL1344
Assay: bacterial growth OD600 after 18 h with compound and polymyxin B; higher = more bacterial growth (less inhibition)
Details: 50 µM, Mueller-Hinton broth

Structure (SMILES) | bacterial growth OD600 (polymyxin B 1 µg/mL) | bacterial growth OD600 (polymyxin B 0.75 µg/mL)
COc1ccccc1CCN1CCCC(CN(C)C(=O)Cc2cccc(C)c2)C1 (configuration not stated) | 0.697 | 
COC(=O)c1ccc(CNCCC2CCC(=O)N2Cc2ccc(C)cc2)cc1 (configuration not stated) |  | 0.785
COc1ccc(CCN(C)C(=O)c2cnn(-c3ncc4c(n3)-c3ccccc3CCC4)c2C)cc1OC |  | 0.132
Cc1ccc2c(CC(=O)N3CCc4c(cnc(C)c4CNC(=O)c4ccsc4)C3)cc(=O)oc2c1 |  | 0.813
O=C(CCC(F)(F)F)N1CCc2onc(-c3cccc4ccccc34)c2C1 |  | 0.001
COc1ccc(OCc2cc(C(=O)N(C)C)n[nH]2)c(Cl)c1 | 0.892 | 
Cc1ccccc1CNC(=O)c1coc(CN2CCN(Cc3ccccc3)CC2)n1 | 1.02 | 
C=CCN(CC=C)Cc1c(C(=O)N2CCN(C3CCCCC3)CC2)nc2ccccn12 | 0.871 | 
O=C(CC(c1ccccc1)c1cccc(Cl)c1)NCCN1CCNC1=O (configuration not stated) | 1.2 | 
Cc1ccc(C(=O)N2CCC(C3(Cc4cccc(F)c4)NC(=O)N(CC(C)C)C3=O)CC2)c(C)c1 (configuration not stated) |  | 0.817
Cc1ccccc1CC(C1CCN(C(=O)CSc2ccccn2)CC1)N(C)C(=O)Cn1cccn1 (configuration not stated) |  | 0.831
COc1ccc(CN(Cc2cccnc2)CC2CCCN(C3CCCCC3)C2)cc1OC (configuration not stated) |  | 0.935
CS(=O)(=O)N1CCc2onc(-c3ccc(F)c(F)c3)c2C1 |  | 0.857
O=C1N(Cc2cccc(Cl)c2)C[C@@H]2C[C@@H](c3cccn3-c3ccccn3)N3CCC[C@@]123 | 0.526 | 
CCN1CCCC1CNC(=O)CCC1CCN(Cc2[nH]c3ccc(OC)cc3c2C)CC1 (configuration not stated) |  | 0.805
COc1cccc(-c2cc3c(c(OC)c2)OCCN(Cc2ccccc2)C3)n1 |  | 0.816

Structure (SMILES) | bacterial growth OD600 (polymyxin B 1 µg/mL) | bacterial growth OD600 (polymyxin B 0.75 µg/mL)
C[C@@H]1CN(c2ccc(C(=O)N3CCC(CCn4cccn4)CC3)cn2)C[C@H](C)O1 |  | 0.776
COc1ccc(NC2CCCN(C(=O)C3(C)CCCCC3)C2)cc1 (configuration not stated) | 0.813 | 
O=C(NCc1cccc(Cl)c1)c1coc(COc2ccc3c(c2)OCO3)n1 | 0.809 | 
Cc1ccc(CN2Cc3cc(Cl)ccc3OC(C)C2)o1 (configuration not stated) |  | 0.721
COc1ccccc1CCNC(=O)Cc1ccc(N2CCC(NC(C)Cc3cccnc3)CC2)cc1 (configuration not stated) |  | 0.748
CCC(=O)N[C@@H]1c2ccccc2C2(CCN(Cc3cc(C)cc(C)c3)CC2)[C@H]1OCCOC |  | 0.861
O=C(NCc1cccnc1Oc1ccccc1)c1ccc2c(c1)OCO2 | 0.939 | 
O=C(c1coc(COc2ccc(F)cc2Cl)n1)N1CCCC(O)C1 (configuration not stated) | 0.955 | 
CCCc1cc(CNC(=O)c2ccc(N3CCN(C)CC3)nc2)on1 | 0.917 | 
O=C(Cn1cccn1)N1CCC(C2CCN(Cc3cccc(F)c3F)CC2)C1 (configuration not stated) |  | 0.814
Cc1ncoc1C(=O)N1CCC2(CCCN(Cc3ccccc3F)C2=O)C1 (configuration not stated) | 0.973 | 
CC1(C)C[C@@H]2C[C@@](C)(CN2C(=O)c2coc(COc3ccc4c(c3)OCO4)n2)C1 | 0.055 | 
CC(=O)c1ccc(OCc2cc(C(=O)N3CCCC(O)C3)no2)cc1 (configuration not stated) | 1.01 | 
COc1ccc(CNC2CCCc3nc(N4CCC(CO)CC4)ncc32)c(F)c1 (configuration not stated) |  | 0.792
O=C(c1cc(Cn2ccc3ccccc32)[nH]n1)N1CCCO1 | 0.864 | 
COCC1CCCN(C(=O)c2cn(CCC3CCCCC3)nn2)C1 (configuration not stated) | 0.98 | 

Not a retest: three of the compounds above.
Structure (SMILES) | bacterial growth OD600 (polymyxin B 1 µg/mL) | bacterial growth OD600 (polymyxin B 0.75 µg/mL)
COc1ccc(CN(Cc2cccnc2)CC2CCCN(C3CCCCC3)C2)cc1OC (configuration not stated) |  | 0.935
CS(=O)(=O)N1CCc2onc(-c3ccc(F)c(F)c3)c2C1 |  | 0.857
O=C1N(Cc2cccc(Cl)c2)C[C@@H]2C[C@@H](c3cccn3-c3ccccn3)N3CCC[C@@]123 | 0.526 | 
